Measurements published in US9580430B2, “9H-pyrimido[4,5-B]indoles and related analogs as BET bromodomain inhibitors” (THE REGENTS OF THE UNIVERSITY OF MICHIGAN, priority 2014, dated 2017).
At least one structure is not confirmed: it was looked up by name or label, or the drawing left a doubt.

Test system: AR
Assay: ChIP-seq of AR in DHT-stimulated VCaP cells
Format: cell-based
Conditions: DHT 10 nM plus JQ1 500 nM, MDV3100 10 μM or Bicalutamide 25 μM, FIG. 17
Method: The ChIP assays for BRD2, BRD3, BRD4, AR, RNA PolII, ERG and H3K27ac were performed using HighCell ChIP kit (Diagenode) according to manufacturer's protocol. […] Next, cells were cross-linked for 10 min. with 1% formaldehyde. […] Chromatin equivalent to 5×10^6 cells were used for ChIP using different antibodies. ChIP DNA was isolated (IPure Kit, Diagenode) from samples by incubation with the antibody at 4° C. overnight followed by wash and reversal of cross-linking. The ChIP-seq sample preparation for sequencing was performed according to the manufacturer's instructions (Illumina). […] A single A-base was added to fragment ends by Klenow fragment (3′ to 5′ exo minus; NEB) followed by ligation of Illumina adaptors (Quick ligase, NEB). The adaptor-modified DNA fragments were enriched by PCR using the Illumina Barcode primers and Phusion DNA polymerase (NEB). PCR products were size selected using 3% NuSieve agarose gels (Lonza) followed by gel extraction using QIAEX II reagents (QIAGEN). Libraries were quantified with the Bioanalyzer 2100 (Agilent) and sequenced on the Illumina HiSeq 2000 Sequencer (100 nucleotide read length).
For enrichment plots shown in FIGS. 17, 19 and 20, identified peaks for each sample are centered by peak summit and average coverage per million was counted within 1500 bp relative to the peak center.

Question: How did the “recruitment of AR to target loci” value turn out when `CC(O)(CS(=O)(=O)c1ccc(F)cc1)C(=O)Nc1ccc(C#N)c(C(F)(F)F)c1` (stereo not shown) [bicalutamide, Bicalutamide] was run?
Answer: less so
